Assay results from patent US20100280600A1, “DUAL DRUG STENT” (priority 2009, published 2010).
At least one compound was matched to its structure with a doubt left.

Assays:
[1] = test system: monocyte chemotactic protein (MCP-1); assay: Cytokine (MCP-1) levels in vascular tissue after delivery from a stent; format: in vivo; conditions: delivered from a stent
Porcine = assay: Animal studies with rapamycin-coated stents, porcine; format: in vivo; conditions: porcine and rabbit models; nonerodible polymeric stent coating; 35-430 ug/15-18 mm coronary stent; maximal at about 28-30 days
[2] = In vitro release kinetics of sirolimus and cilostazol from coated stents; format: physicochemical

CO[C@H]1C[C@@H]2CC[C@@H](C)[C@@](O)(O2)C(=O)C(=O)N2CCCC[C@H]2C(=O)O[C@H]([C@H](C)C[C@@H]2CC[C@@H](O)[C@H](OC)C2)CC(=O)[C@H](C)/C=C(\C)[C@@H](O)[C@@H](OC)C(=O)[C@H](C)C[C@H](C)/C=C/C=C/C=C/1C [rapamycin]
monocyte chemotactic protein (MCP-1) levels in the vascular wall [1]: highly effective in reducing
peak reduction in neointimal hyperplasia (Porcine): fifty to fifty-five
in vitro drug release rate ([2]; 200 μg BMA diffusion overcoat (FIG. 4) versus 100 μg (FIG. 6)): comparatively slower
in vitro release ([2]; FIG. 11 stent (sirolimus + cilostazol in one EVA/BMA layer, 100 μg BMA overcoat), FIG. 10): ~35%
